Reference: patent publication EP0199291A1 (priority 1985, dated 1986)
Like-named read-outs stand apart in the source and are kept apart here.

Assays:
C57BL/6 = conditions: 5-day cultures (Fig. 1)
[1] = tested on: trinitrophenylierte C3H Targetzellen; conditions: injected into the four foot pads at immunisation; tested after 5 days (Fig. 1)
allogene C57BL/6 Zellen = conditions: Cyclophosphamide-treated C3H mice; response already relatively weak without treatment
CTL-Precursorzellen = conditions: microcultures with EL-4 supernatant (2 units IL-2); Fig. 4
[2] = tested on: con-A-aktivierte C3H Milzzellen; conditions: 9 x 10^-3 mol/l; Con A 5 µg/ml; 24 h (Fig. 5)
C3H Thymocyten = conditions: Concanavalin A plus 2 units IL-2; 3 days (Fig. 7)
W-2 T-Zellklon = conditions: 0,5 units IL-2; 20 h; increasing doses (Fig. 8)
[3] = tested on: L 929-Zellen und Vesicular Stomatitis Virus (Indiana-Stamm); conditions: control solutions with increasing amounts in culture medium

NCCC[C@H](N)C(=O)O [L-Ornithin]
Wirkung auf in vitro-cytotoxische Antworten gegen haptenierte syngene Targetzellen (TNP-C3H; 5-day cultures (Fig. 1)): starke suppressive Wirkung | cytotoxische Antworten (TNP-C3H; 9 x 10^-3 mol/l): vollständig supprimiert | cytotoxische Antworten (TNP-C3H; added during the first two days of the reaction): stark supprimiert | cytotoxische Antworten (TNP-C3H; added on day 3): wesentlich weniger gehemmt | Wirkung auf in vitro-cytotoxische Antworten gegen allogene Targetzellen (C57BL/6): starke suppressive Wirkung | Wirkung auf in vivo-cytotoxische Antworten gegen haptenierte syngene Targetzellen [1]: starke suppressive Wirkung | cytotoxische Antwort gegen allogene C57BL/6 Zellen in vivo (allogene C57BL/6 Zellen): supprimiert | Effekt auf cytotoxische Antworten in IL-2-haltigen Kulturen (CTL-Precursorzellen): starken suppressiven Effekt | Effekt auf die Produktion von IFN-Y [2]: keinen wesentlichen Effekt | Effekt auf die DNA-Synthese der reagierenden Lymphozyten (C3H Thymocyten): keinen Effekt | Wirkung auf die DNA-Synthese dieses T-Zellklons (W-2 T-Zellklon): keine Wirkung | Interferon-Aktivität (of the substance itself) [3]: keine Interleukin-2 oder Interferon-Aktivität
